Experimental data published in PubChem BioAssay AID504467 (National Center for Advancing Translational Sciences (NCATS), 2011).
Hit rate of the full screen: of about 330,000 compounds, about 7,700 (2.3%) were called active. The inconclusive results got no clear call from the source; some entries with a clear call stand among them for comparison. The call rests on the fitted dose curve; in most records, active means well fitted inhibition curve with a large enough effect; inconclusive means small, poorly fitted or top-dose-only effect, or effect the other way; inactive means flat fitted curve, though single readings scatter. A potency beside an inconclusive call is a rough fit, not a confirmed value.

Assay: qHTS screen for small molecules that inhibit ELG1-dependent DNA repair in human embryonic kidney (HEK293T) cells expressing luciferase-tagged ELG1; further: nearly all actives have a fitted effect of over 55% in size
Conditions: HEK293T ELG1-luciferase reporter, luminescence, 16 h, DNA damage induced by 5-fluorouridine; activity change, negative = inhibition: at 46.1 µM (top of the series)
Outline: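 Reporter activity after DNA damage by 5-fluorouridine is monitored. Compound-treated cells incubate 16 hr at 37 °C, then ONE-Glo is added for 30 min before luminescence reading.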
On the % scale 0 is the no-effect control and ±100 the full control effect; potency means the concentration at half of the fitted maximal effect.

| Compound | Potency | activity change, negative = inhibition |
| --- | --- | --- |
| Cc1ccc(Nc2ncnc3sccc23)c(C)c1 | inconclusive: 14.6 µM [activator, single point] | – |
| Cc1ccc(-n2c(N)c(C(N)=O)sc2=S)cc1 | inconclusive: 29.1 µM [activator, single point] | – |
| Cc1cc(Cl)c2oc(C(=O)N(C)C3CCOC3)c(C)c2c1 (stereo unspecified) | inconclusive: 18.3 µM [activator, single point] | – |
| Cc1cccc(/C=N/NC(=O)CNc2cccc3ccccc23)n1 | – | inactive: 22.4% |
| O=C(OCC(=O)N1CCc2ccccc21)c1c2c(nc3ccccc13)CCCCC2 | active: 23.1 µM | – |
| CCn1cc(CNC(=O)NC2CCCCC2)c(C)n1 | inconclusive: 20.6 µM [activator, partial curve] | – |
| Fc1ccc(-c2nnc(SCc3ncc(-c4ccccc4)o3)n2CC2CCCO2)cc1 (stereo unspecified) | – | inactive: -1.65% |
| Cn1c(=O)c(/C=C/c2ccc(F)cc2)nc2ccccc21 | inconclusive: 10.3 µM [activator, partial curve] | – |
| CC(C)CNC(=S)N(CCN(C)C)Cc1cc2cc3c(cc2[nH]c1=O)OCO3 | – | inactive: -6.77% |
| O=C(Nc1ccc(Cl)cc1)N(Cc1cccs1)Cc1cccs1 | inconclusive: 35.5 µM [inhibitor, single point] | – |
| CCN(c1ccccc1)S(=O)(=O)c1cccc(C(=O)N2CCN(S(=O)(=O)c3ccccc3)CC2)c1 | inconclusive: 29.1 µM [inhibitor, single point] | – |
| c1ccc(CN2CCC(Nc3nc(-c4cccnc4)nc4ccccc34)CC2)cc1 | – | inactive: 3.11% |
| CC1CCCCC12NC(=O)N(CC(=O)N1CCN(Cc3ccc(C#N)cc3)CC1)C2=O (stereo unspecified) | – | inactive: 15.8% |
| COC(=O)c1cccnc1NC(=S)NNC(=O)c1ccncc1 | inconclusive: 29.1 µM [inhibitor, partial curve, poor fit] | – |
| O=C1/C(=C/c2ccc(F)cc2)CCC1C1CCCC1 (stereo unspecified) | inconclusive: 20.6 µM [activator, partial curve] | – |
| O=C1S/C(=C\c2ccc(Cl)cc2)C(=O)N1CCn1cnnn1 | inconclusive: 29.1 µM [activator, single point] | – |
| O=C1CNC(=S)N1CCc1ccc(O)c(O)c1 | – | inactive: 10.8% |
| C#CC(=O)N(c1ccc(OC)cc1OC)C(C(=O)NC1CCCC1)c1cccs1 (stereo unspecified) | – | inactive: 1.08% |
| O=C(c1ccncc1)N1CCN(c2ccc3ccccc3n2)CC1 | inconclusive: 18.3 µM [inhibitor, partial curve, poor fit] | – |
| Cc1occc1C(=O)N1CCCC(Nc2ccc(C(C)C)cc2)C1 (stereo unspecified) | – | inactive: -3.74% |
| Cc1occc1C(=O)N/N=C/c1ccc(N(C)C)cc1 | inconclusive: 2.59 µM [activator, full curve] | – |

A draw from above in order of count of non-hydrogen atoms, low to high:

| Compound | Potency | activity change, negative = inhibition |
| --- | --- | --- |
| O=C1CNC(=S)N1CCc1ccc(O)c(O)c1 | – | inactive: 10.8% |
| Cc1occc1C(=O)N/N=C/c1ccc(N(C)C)cc1 | inconclusive: 2.59 µM [activator, full curve] | – |
| Cn1c(=O)c(/C=C/c2ccc(F)cc2)nc2ccccc21 | inconclusive: 10.3 µM [activator, partial curve] | – |
| CC(C)CNC(=S)N(CCN(C)C)Cc1cc2cc3c(cc2[nH]c1=O)OCO3 | – | inactive: -6.77% |
